Measurements: paper PMC3206029
No constants are given. Whether binding was seen depends on the method and setting. Binding seen in cells or lysates may run through a third protein.

Chains of the proteins cited; added tags and fusions are not shown. Lines headed by an entry give the natural chain unless they say otherwise; changes in a name come on top.
UniProt Q14790: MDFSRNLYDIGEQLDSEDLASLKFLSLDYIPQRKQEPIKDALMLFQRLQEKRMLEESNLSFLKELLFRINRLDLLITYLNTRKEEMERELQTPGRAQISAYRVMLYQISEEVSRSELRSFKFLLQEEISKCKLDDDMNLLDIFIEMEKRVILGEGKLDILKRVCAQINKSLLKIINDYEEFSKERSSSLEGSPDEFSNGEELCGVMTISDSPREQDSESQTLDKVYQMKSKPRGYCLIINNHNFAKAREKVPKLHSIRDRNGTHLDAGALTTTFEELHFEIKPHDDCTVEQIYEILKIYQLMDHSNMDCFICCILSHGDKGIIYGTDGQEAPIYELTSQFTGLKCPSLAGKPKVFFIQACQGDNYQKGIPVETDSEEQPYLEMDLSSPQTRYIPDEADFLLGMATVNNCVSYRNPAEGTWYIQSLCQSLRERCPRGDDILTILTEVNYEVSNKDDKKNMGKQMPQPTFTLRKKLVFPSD
UniProt P09486: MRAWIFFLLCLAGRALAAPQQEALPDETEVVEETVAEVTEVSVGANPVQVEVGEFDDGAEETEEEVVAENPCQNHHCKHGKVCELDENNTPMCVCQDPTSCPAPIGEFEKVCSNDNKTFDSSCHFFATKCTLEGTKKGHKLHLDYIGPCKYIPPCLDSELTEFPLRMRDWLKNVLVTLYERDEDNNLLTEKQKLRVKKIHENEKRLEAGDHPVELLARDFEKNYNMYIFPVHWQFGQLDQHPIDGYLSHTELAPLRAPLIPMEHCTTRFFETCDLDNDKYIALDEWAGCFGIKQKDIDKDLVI

Biological target: caspase 8 (human (endogenous in MIP101, RKO, MiaPaCa and MCF-7 cells)) (UniProt Q14790)
Assay: co-IP; whole protein extracts of MIP101 cells stably or transiently overexpressing myc/His6-tagged SPARC domains; antibodies against caspase 8 and His6, reciprocal; Protein A:Protein G beads, PBS, 4°C

binding, no binding:
follistatin-like domain of SPARC, myc/His6-tagged (SP-F) (from UniProt P09486) (domain or fragment)
mutant follistatin-like domain of SPARC SP-Fmut1 (from UniProt P09486) (domain or fragment)
mutant follistatin-like domain of SPARC SP-Fmut2 (from UniProt P09486) (domain or fragment)
